Data published in article PMC5562708.
These are yes or no findings as the source states them, for the method shown. Binding seen in cells or lysates may run through a third protein. Some binding calls cover weakened binding; strength is not graded here. Where a sequence is shown, tags or fusion partners need not be part of it.

Protein sequences, listed by entry. Tags and fused reporters are not part of them. Residues count along the entry.
UniProt Q13873, residues 27-1038: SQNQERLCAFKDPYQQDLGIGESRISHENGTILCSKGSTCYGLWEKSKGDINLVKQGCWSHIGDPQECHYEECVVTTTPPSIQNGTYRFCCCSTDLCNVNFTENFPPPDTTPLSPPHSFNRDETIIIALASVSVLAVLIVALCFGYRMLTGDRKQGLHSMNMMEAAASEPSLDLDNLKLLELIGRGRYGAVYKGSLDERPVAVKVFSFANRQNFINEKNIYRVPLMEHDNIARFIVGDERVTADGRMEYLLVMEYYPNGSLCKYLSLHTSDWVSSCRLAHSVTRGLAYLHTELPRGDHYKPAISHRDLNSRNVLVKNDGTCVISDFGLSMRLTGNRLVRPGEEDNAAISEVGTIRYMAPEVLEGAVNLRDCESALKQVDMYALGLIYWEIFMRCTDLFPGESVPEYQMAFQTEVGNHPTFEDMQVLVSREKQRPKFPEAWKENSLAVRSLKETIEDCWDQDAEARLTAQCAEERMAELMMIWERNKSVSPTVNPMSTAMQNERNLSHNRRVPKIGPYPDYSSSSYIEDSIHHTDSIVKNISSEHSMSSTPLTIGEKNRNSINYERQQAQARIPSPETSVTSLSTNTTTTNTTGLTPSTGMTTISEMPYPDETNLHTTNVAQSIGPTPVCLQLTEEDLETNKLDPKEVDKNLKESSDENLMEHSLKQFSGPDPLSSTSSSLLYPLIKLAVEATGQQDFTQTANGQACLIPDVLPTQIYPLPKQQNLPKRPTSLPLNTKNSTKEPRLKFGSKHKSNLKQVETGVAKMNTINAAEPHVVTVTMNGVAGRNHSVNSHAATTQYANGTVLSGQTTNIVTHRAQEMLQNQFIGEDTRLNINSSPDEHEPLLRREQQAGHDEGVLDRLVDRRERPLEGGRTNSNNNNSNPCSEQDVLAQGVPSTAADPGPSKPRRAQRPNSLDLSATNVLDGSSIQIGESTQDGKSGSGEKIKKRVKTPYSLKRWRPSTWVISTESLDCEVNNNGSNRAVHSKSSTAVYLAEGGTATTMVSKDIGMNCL

Assays:
[1] = biological target: T1, IRS4 E1189 truncation (myc-tagged) (mouse) (UniProt Q9Z0Y7); experiment: co-IP; transfected HEK293T cells, lysed directly or starved 6 h and stimulated with 10 nM BMP2; RIPA or TNE buffer; IP with anti-myc (9E10) or anti-IRS4 antibody overnight, protein A sepharose; Western blot
T1 sequence: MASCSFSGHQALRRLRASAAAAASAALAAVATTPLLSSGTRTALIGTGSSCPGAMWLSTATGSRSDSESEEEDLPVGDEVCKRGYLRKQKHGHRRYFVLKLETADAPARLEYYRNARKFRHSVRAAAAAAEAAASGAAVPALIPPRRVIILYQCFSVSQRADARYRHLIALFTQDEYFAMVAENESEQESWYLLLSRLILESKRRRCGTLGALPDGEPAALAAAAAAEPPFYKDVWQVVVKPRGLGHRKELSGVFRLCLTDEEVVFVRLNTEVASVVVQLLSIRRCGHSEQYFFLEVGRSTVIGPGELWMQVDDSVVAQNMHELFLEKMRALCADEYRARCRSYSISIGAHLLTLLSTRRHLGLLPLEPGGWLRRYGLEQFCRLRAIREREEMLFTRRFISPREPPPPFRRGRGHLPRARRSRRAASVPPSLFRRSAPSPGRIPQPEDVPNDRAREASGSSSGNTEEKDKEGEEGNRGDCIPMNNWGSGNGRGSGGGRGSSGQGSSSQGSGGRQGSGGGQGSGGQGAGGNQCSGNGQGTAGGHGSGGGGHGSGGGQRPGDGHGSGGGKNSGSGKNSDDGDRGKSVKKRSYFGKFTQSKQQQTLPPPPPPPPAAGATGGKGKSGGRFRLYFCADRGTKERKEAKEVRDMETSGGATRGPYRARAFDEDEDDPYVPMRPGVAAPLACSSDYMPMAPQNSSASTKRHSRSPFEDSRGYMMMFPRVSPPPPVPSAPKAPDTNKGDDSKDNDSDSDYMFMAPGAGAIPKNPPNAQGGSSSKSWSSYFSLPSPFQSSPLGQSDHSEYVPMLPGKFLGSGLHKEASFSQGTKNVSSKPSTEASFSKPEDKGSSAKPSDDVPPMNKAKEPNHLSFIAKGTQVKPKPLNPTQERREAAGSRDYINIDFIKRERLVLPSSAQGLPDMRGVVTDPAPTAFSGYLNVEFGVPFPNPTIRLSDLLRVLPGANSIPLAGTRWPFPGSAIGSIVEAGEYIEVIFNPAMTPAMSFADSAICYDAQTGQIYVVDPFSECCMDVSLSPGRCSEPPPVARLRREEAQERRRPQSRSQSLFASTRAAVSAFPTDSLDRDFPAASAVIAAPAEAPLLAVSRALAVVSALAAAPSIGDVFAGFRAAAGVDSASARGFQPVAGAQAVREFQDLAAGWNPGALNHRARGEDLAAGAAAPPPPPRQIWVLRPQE

[2] = biological target: T2, IRS4 truncation from the C-terminus to amino acid residue 604 (myc-tagged) (mouse) (UniProt Q9Z0Y7); experiment: as above
T2 sequence: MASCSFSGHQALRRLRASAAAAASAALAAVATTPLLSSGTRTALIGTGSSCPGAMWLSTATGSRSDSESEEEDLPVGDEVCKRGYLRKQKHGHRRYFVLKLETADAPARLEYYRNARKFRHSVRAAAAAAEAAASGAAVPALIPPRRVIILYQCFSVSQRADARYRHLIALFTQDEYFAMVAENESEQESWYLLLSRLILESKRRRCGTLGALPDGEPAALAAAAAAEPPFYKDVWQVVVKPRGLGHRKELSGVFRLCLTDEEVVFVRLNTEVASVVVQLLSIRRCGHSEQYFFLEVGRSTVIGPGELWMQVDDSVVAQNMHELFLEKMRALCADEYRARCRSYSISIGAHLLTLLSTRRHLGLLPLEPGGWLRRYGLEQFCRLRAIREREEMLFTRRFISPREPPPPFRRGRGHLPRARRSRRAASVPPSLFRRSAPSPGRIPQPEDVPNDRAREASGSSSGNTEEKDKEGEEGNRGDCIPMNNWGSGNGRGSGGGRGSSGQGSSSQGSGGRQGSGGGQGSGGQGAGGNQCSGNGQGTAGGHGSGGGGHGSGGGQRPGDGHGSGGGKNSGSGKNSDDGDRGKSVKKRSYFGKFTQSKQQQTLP

Substance: HA-tagged BMPRII long form (HA-BMPRII-LF) (from UniProt Q13873 27-1038) (receptor)
- binding [1]: binds
- binding [2]: binds
